In the supplement of paper PMC10849652:
Some of the results follow.

Amino acid sequences for entries named in this document (tags omitted). A change or cut given only in a name is not applied to a line headed by its entry.
UniProt Q14676: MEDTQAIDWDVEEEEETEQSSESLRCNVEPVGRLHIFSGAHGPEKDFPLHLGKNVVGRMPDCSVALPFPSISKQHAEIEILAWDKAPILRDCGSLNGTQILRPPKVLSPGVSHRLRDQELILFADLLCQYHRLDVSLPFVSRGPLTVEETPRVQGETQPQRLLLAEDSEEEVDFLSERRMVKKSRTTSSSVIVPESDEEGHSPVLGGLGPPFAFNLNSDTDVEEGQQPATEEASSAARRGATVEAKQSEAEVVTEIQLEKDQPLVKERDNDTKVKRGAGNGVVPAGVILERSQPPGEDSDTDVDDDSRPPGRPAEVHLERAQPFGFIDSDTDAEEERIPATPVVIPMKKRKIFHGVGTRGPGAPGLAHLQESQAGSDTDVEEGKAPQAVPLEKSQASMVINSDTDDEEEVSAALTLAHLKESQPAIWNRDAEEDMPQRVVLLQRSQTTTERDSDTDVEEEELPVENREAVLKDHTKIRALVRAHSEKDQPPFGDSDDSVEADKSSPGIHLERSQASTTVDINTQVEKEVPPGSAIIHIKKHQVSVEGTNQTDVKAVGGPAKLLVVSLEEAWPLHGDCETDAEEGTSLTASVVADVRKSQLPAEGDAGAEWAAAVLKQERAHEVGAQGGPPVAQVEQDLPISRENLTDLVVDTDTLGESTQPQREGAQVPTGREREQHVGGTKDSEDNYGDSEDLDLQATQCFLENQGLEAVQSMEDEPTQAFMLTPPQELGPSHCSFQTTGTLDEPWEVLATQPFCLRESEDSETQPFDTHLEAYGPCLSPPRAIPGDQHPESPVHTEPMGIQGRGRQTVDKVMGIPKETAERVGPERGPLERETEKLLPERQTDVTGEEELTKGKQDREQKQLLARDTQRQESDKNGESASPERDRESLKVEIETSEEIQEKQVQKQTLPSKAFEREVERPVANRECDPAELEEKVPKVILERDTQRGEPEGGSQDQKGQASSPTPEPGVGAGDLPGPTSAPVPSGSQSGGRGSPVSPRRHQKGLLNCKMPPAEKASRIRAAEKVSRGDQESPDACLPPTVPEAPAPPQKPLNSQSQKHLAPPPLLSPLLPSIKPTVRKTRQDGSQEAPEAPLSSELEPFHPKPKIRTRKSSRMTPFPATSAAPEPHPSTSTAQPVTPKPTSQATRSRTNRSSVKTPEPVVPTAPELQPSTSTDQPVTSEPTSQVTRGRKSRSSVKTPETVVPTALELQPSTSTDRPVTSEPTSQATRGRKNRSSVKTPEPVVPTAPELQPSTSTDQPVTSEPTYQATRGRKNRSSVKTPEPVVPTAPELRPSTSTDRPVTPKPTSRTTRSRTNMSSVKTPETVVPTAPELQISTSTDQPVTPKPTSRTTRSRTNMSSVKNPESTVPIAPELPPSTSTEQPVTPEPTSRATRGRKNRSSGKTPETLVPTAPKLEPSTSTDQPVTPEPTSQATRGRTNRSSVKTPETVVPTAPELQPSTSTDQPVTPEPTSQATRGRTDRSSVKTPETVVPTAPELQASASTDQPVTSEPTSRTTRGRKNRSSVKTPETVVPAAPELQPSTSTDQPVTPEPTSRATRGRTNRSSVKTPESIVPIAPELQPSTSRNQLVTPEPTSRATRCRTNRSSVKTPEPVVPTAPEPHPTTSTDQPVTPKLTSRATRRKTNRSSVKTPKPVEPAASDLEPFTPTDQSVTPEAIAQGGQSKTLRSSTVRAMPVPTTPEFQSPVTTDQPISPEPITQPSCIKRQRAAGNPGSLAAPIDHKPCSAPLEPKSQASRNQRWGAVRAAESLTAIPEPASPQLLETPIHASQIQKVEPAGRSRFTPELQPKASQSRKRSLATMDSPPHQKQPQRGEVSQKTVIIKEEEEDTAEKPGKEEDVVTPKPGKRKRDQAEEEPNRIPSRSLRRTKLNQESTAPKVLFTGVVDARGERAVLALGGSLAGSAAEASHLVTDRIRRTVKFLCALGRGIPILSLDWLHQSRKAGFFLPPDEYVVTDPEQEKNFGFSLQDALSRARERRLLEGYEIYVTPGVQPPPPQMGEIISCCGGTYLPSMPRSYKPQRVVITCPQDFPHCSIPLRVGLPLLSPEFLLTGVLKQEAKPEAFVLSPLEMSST
UniProt Q9NWR8: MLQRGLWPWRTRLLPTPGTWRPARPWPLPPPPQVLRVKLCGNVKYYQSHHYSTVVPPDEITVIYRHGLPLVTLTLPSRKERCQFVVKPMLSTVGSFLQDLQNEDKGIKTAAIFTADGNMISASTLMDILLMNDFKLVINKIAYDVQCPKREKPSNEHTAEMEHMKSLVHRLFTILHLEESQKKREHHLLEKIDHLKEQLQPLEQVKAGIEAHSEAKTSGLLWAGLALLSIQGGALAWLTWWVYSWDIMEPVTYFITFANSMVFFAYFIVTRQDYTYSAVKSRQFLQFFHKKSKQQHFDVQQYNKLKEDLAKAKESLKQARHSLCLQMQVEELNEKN
UniProt Q14566: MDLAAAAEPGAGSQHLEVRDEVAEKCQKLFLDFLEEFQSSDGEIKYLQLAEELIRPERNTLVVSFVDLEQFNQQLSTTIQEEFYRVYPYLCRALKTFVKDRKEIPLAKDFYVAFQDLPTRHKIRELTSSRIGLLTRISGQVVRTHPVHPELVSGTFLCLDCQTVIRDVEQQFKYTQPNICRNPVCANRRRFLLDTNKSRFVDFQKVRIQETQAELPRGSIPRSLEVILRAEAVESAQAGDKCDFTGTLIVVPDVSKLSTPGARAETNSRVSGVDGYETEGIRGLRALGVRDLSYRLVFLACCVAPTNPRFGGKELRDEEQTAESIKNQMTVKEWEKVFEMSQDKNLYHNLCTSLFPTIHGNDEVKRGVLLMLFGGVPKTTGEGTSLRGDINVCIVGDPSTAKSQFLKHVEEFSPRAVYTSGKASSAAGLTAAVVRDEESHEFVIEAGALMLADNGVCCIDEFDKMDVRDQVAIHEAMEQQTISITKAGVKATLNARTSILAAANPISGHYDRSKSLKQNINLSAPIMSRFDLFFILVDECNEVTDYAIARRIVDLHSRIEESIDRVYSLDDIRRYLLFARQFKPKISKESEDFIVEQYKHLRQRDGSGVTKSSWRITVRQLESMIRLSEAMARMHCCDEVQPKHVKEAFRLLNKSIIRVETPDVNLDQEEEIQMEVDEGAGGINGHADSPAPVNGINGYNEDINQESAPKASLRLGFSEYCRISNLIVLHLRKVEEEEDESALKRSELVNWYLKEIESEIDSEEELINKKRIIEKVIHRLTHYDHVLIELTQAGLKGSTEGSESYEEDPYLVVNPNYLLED
UniProt Q9BTE3: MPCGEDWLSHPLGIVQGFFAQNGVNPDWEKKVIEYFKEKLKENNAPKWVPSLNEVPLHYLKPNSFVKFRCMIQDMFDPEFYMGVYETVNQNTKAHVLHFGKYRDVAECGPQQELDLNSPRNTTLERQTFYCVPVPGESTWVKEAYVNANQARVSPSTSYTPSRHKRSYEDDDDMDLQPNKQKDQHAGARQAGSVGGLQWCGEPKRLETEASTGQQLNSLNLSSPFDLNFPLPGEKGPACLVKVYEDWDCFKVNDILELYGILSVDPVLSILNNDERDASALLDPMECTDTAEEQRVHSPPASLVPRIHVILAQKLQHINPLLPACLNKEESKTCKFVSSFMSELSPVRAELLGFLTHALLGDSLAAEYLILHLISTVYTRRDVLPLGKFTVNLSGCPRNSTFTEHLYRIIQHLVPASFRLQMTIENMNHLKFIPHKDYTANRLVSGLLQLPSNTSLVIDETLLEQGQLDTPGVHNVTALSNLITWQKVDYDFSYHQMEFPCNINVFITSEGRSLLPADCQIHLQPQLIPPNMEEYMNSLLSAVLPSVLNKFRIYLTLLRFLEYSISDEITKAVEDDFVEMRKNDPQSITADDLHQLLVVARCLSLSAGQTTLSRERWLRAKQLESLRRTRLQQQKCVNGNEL
UniProt Q7L590: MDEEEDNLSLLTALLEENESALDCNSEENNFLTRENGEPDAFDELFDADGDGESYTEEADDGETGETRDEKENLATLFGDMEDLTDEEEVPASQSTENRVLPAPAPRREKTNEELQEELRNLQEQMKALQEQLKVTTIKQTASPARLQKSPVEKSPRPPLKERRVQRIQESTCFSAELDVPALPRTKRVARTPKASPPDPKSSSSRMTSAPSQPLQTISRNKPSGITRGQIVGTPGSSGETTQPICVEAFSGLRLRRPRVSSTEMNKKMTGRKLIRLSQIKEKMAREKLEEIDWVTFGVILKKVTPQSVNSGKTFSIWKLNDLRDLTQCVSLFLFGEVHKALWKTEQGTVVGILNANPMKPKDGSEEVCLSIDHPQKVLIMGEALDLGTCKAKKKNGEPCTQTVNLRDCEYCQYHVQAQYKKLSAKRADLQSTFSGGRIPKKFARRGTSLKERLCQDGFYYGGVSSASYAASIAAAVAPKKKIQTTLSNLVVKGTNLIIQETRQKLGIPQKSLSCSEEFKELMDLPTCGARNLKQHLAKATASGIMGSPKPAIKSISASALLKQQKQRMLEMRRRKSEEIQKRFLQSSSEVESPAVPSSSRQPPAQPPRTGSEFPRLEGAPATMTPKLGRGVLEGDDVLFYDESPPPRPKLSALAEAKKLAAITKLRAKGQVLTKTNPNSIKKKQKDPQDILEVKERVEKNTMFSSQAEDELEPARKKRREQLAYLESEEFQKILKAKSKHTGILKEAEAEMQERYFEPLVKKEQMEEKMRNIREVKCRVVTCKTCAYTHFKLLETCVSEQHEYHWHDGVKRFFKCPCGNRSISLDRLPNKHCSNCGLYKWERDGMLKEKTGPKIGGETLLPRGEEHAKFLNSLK
UniProt Q6ZWT7: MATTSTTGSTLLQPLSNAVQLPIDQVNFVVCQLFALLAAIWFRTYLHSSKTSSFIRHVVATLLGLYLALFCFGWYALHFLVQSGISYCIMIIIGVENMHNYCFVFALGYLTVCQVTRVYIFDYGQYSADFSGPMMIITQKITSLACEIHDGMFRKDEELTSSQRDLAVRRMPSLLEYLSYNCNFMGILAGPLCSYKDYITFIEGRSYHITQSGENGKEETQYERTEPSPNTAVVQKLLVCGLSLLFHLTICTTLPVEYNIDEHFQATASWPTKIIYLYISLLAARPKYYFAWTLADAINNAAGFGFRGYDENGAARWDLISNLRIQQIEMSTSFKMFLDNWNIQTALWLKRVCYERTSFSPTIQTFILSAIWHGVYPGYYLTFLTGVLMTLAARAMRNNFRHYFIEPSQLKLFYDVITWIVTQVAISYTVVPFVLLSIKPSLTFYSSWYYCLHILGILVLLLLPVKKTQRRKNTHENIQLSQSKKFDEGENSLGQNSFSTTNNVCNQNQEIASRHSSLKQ
UniProt Q96HR3: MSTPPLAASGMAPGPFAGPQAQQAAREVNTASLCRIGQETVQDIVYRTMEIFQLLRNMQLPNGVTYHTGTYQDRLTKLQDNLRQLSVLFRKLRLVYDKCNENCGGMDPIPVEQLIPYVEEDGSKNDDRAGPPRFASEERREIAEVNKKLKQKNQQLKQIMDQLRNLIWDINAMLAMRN
UniProt P56270: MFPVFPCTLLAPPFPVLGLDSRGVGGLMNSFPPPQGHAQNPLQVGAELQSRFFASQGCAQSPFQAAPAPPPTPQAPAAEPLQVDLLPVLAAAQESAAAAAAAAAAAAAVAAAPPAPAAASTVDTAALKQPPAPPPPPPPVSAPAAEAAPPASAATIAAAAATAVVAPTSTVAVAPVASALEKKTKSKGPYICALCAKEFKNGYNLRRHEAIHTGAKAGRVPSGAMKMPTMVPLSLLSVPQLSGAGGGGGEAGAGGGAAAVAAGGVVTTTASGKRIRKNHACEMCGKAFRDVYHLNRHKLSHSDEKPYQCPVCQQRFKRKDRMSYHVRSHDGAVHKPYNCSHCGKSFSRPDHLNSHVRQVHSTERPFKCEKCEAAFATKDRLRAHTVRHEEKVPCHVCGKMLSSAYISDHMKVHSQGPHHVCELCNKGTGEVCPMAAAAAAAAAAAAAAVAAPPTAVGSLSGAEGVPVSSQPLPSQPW
UniProt O95243: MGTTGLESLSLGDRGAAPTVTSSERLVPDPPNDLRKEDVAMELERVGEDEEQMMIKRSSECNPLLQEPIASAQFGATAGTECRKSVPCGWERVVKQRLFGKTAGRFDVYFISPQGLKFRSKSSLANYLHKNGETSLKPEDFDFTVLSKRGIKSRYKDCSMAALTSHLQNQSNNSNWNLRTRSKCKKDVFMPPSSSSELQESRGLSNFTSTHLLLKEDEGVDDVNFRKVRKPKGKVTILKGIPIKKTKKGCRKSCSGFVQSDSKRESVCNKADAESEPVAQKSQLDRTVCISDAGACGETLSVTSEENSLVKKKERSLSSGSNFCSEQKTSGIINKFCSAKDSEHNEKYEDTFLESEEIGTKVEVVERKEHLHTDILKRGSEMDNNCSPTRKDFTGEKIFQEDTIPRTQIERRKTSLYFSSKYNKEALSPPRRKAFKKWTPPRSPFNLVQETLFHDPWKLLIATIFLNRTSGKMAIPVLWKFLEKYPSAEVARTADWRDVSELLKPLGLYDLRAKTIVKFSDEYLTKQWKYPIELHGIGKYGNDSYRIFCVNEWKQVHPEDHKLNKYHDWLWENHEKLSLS

How the values were obtained:
Assay in all cases: log2 fold change, soluble protein after heating vs DMSO (PISA); higher = thermal stabilisation; K562 lysate, 10 uM; active = over 0.2 and 3.5 SD of the protein, either way, in both replicates (recomputed)
lapatinib = compound: CS(=O)(=O)CCNCc1ccc(-c2ccc3ncnc(Nc4ccc(OCc5cccc(F)c5)c(Cl)c4)c3c2)o1 [lapatinib]
Summary of the method: (§1)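 A 30 min treatment with 10 μM compound was applied to crude K562 extract at 1 mg/mL protein in PBS pH 7.4 with 1 mM MgCl2. Heating for 3 min spanned 48°C-58°C, after which aliquots were pooled, adjusted to 0.5% NP-40 at 4°C and spun at 21,000xg for 90 min. TMTpro 16plex LC-MS/MS of the supernatant, with channel sums equalised, gave values recorded as log-two fold change in thermal stability against solvent controls, from duplicates.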

pictilisib = compound: CS(=O)(=O)N1CCN(Cc2cc3nc(-c4cccc5[nH]ncc45)nc(N4CCOCC4)c3s2)CC1 [pictilisib]
Summary of the method: as §1

crizotinib = compound: C[C@@H](Oc1cc(-c2cnn(C3CCNCC3)c2)cnc1N)c1c(Cl)ccc(F)c1Cl [crizotinib]
Summary of the method: as §1

[1] = compound: C[C@H](C1=CC=C(C=C1)C(=O)NC2=C3C=CNC3=NC=C2)N
Summary of the method: as §1

duvelisib = compound: C[C@H](Nc1ncnc2nc[nH]c12)c1cc2cccc(Cl)c2c(=O)n1-c1ccccc1 [duvelisib]
Summary of the method: as §1

gandotinib = compound: Cc1cc(Nc2cc(CN3CCOCC3)c3nc(C)c(Cc4ccc(Cl)cc4F)n3n2)n[nH]1 [gandotinib]
Summary of the method: as §1

tozasertib = compound: Cc1cc(Nc2cc(N3CCN(C)CC3)nc(Sc3ccc(NC(=O)C4CC4)cc3)n2)n[nH]1 [tozasertib]
Summary of the method: as §1

doramapimod = compound: Cc1ccc(-n2nc(C(C)(C)C)cc2NC(=O)Nc2ccc(OCCN3CCOCC3)c3ccccc23)cc1 [doramapimod]
Summary of the method: as §1

bafetinib = compound: Cc1ccc(NC(=O)c2ccc(CN3CC[C@H](N(C)C)C3)c(C(F)(F)F)c2)cc1Nc1nccc(-c2cncnc2)n1 [bafetinib]
Summary of the method: as §1

[2] = compound: Cc1cccc(CC(=O)N2CCc3c2ccc(-c2cn(C)c4ncnc(N)c24)c3F)n1
Summary of the method: as §1

| Target | log2 fold change (lapatinib) | log2 fold change (pictilisib) | log2 fold change (crizotinib) | log2 fold change [1] | log2 fold change (duvelisib) | log2 fold change (gandotinib) | log2 fold change (tozasertib) | log2 fold change (doramapimod) | log2 fold change (bafetinib) | log2 fold change [2] |
| --- | --- | --- | --- | --- | --- | --- | --- | --- | --- | --- |
| METTL16 (UniProt Q86W50) | inactive: -0.075 | inactive: 0 | inactive: 0.046 | inactive: 0.036 | inactive: -0.022 | inactive: -0.05 | inactive: -0.032 | inactive: -0.04 | inactive: 0.027 | inactive: -0.012 |
| MDP1 (UniProt Q86V88) | inactive: 0.045 | inactive: 0.002 | inactive: -0.013 | inactive: 0.007 | inactive: 0.021 | inactive: -0.028 | inactive: 0.024 | inactive: 0.003 | inactive: -0.049 | inactive: -0.087 |
| MED6 (UniProt O75586) | inactive: 0.016 | inactive: -0.036 | inactive: -0.053 | inactive: -0.105 | inactive: 0.034 | inactive: 0.057 | inactive: -0.003 | inactive: 0.141 | inactive: -0.033 | inactive: 0.01 |
| METAP2 (UniProt P50579) | inactive: -0.002 | inactive: -0.016 | inactive: 0 | inactive: -0.041 | inactive: 0.007 | inactive: 0.021 | inactive: -0.014 | inactive: -0.041 | inactive: 0.047 | inactive: 0.01 |
| MEX3B (UniProt Q6ZN04) | inactive: 0.108 | inactive: 0.097 |  | inactive: -0.278 | inactive: -0.059 | inactive: 0.215 | inactive: 0.18 |  | inactive: -0.039 | inactive: 0.069 |
| METTL1 (UniProt Q9UBP6) | inactive: 0.003 | inactive: 0.03 |  | inactive: -0.039 | inactive: -0.002 | inactive: 0.001 | inactive: -0.021 | inactive: 0.015 | inactive: -0.011 | inactive: 0.046 |
| MDC1 (UniProt Q14676) | inactive: -0.004 | inactive: -0.031 | inactive: -0.019 | inactive: -0.016 | inactive: -0.009 | inactive: 0.005 | inactive: -0.008 | inactive: 0.021 | inactive: 0 | inactive: 0.018 |
| MCM7 (UniProt P33993) | inactive: -0.012 | inactive: 0.006 | inactive: -0.01 | inactive: 0.023 | inactive: 0.044 | inactive: -0.04 | inactive: -0.014 | inactive: 0.003 | inactive: -0.041 | inactive: 0.028 |
| METTL5 (UniProt H0YFV5) | inactive: -0.081 | inactive: -0.021 | inactive: -0.107 |  |  |  |  | inactive: -0.021 | inactive: -0.006 |  |
| MDN1 (UniProt Q9NU22) | inactive: -0.004 | inactive: -0.02 | inactive: -0.092 | inactive: -0.12 | inactive: 0.045 | inactive: 0.04 | inactive: 0.022 | inactive: 0.009 | inactive: -0.055 | inactive: 0.157 |
| METTL9 (UniProt Q9H1A3) | inactive: -0.179 | inactive: -0.045 | inactive: -0.024 | inactive: -0.171 | inactive: 0.119 | inactive: -0.036 |  | inactive: -0.102 | inactive: -0.135 | inactive: 0.237 |
| MCUB (UniProt Q9NWR8) | inactive: 0.044 | inactive: 0.088 | inactive: -0.17 | inactive: 0.187 | inactive: -0.018 | inactive: -0.347 |  | inactive: 0.05 | inactive: -0.045 | inactive: -0.016 |
| MCM6 (UniProt Q14566) | inactive: -0.006 | inactive: -0.004 | inactive: -0.014 | inactive: -0.007 | inactive: -0.009 | inactive: -0.056 | inactive: 0.015 | inactive: 0.002 | inactive: -0.026 | inactive: 0.006 |
| MCMBP (UniProt Q9BTE3) | inactive: 0.008 | inactive: -0.027 | inactive: -0.032 | inactive: 0.048 | inactive: 0.002 | inactive: -0.083 | inactive: -0.007 | inactive: -0.001 | inactive: -0.007 | inactive: -0.048 |
| MCRIP2 (UniProt Q9BUT9) | inactive: 0.02 | inactive: -0.147 | inactive: 0.004 | inactive: 0.011 | inactive: 0.066 | inactive: -0.034 | inactive: 0.089 | inactive: -0.027 | inactive: -0.099 | inactive: 0.006 |
| MCMBP isoform 2 (UniProt Q9BTE3) | inactive: 0.154 | inactive: -0.179 | inactive: 0.14 |  | inactive: -0.03 |  | inactive: 0.013 | inactive: -0.092 | inactive: 0.235 |  |

Eight consecutive entries from above, quoted:

| Target | log2 fold change (lapatinib) | log2 fold change (pictilisib) | log2 fold change (crizotinib) | log2 fold change [1] | log2 fold change (duvelisib) | log2 fold change (gandotinib) | log2 fold change (tozasertib) | log2 fold change (doramapimod) | log2 fold change (bafetinib) | log2 fold change [2] |
| --- | --- | --- | --- | --- | --- | --- | --- | --- | --- | --- |
| MCM7 (UniProt P33993) | inactive: -0.012 | inactive: 0.006 | inactive: -0.01 | inactive: 0.023 | inactive: 0.044 | inactive: -0.04 | inactive: -0.014 | inactive: 0.003 | inactive: -0.041 | inactive: 0.028 |
| METTL5 (UniProt H0YFV5) | inactive: -0.081 | inactive: -0.021 | inactive: -0.107 |  |  |  |  | inactive: -0.021 | inactive: -0.006 |  |
| MDN1 (UniProt Q9NU22) | inactive: -0.004 | inactive: -0.02 | inactive: -0.092 | inactive: -0.12 | inactive: 0.045 | inactive: 0.04 | inactive: 0.022 | inactive: 0.009 | inactive: -0.055 | inactive: 0.157 |
| METTL9 (UniProt Q9H1A3) | inactive: -0.179 | inactive: -0.045 | inactive: -0.024 | inactive: -0.171 | inactive: 0.119 | inactive: -0.036 |  | inactive: -0.102 | inactive: -0.135 | inactive: 0.237 |
| MCUB (UniProt Q9NWR8) | inactive: 0.044 | inactive: 0.088 | inactive: -0.17 | inactive: 0.187 | inactive: -0.018 | inactive: -0.347 |  | inactive: 0.05 | inactive: -0.045 | inactive: -0.016 |
| MCM6 (UniProt Q14566) | inactive: -0.006 | inactive: -0.004 | inactive: -0.014 | inactive: -0.007 | inactive: -0.009 | inactive: -0.056 | inactive: 0.015 | inactive: 0.002 | inactive: -0.026 | inactive: 0.006 |
| MCMBP (UniProt Q9BTE3) | inactive: 0.008 | inactive: -0.027 | inactive: -0.032 | inactive: 0.048 | inactive: 0.002 | inactive: -0.083 | inactive: -0.007 | inactive: -0.001 | inactive: -0.007 | inactive: -0.048 |
| MCRIP2 (UniProt Q9BUT9) | inactive: 0.02 | inactive: -0.147 | inactive: 0.004 | inactive: 0.011 | inactive: 0.066 | inactive: -0.034 | inactive: 0.089 | inactive: -0.027 | inactive: -0.099 | inactive: 0.006 |

Additional records:

| Target | log2 fold change (lapatinib) | log2 fold change (pictilisib) | log2 fold change (crizotinib) | log2 fold change [1] | log2 fold change (duvelisib) | log2 fold change (gandotinib) | log2 fold change (tozasertib) | log2 fold change (doramapimod) | log2 fold change (bafetinib) | log2 fold change [2] |
| --- | --- | --- | --- | --- | --- | --- | --- | --- | --- | --- |
| MED26 (UniProt O95402) | inactive: -0.004 | inactive: -0.066 | inactive: 0.013 | inactive: -0.128 |  | inactive: 0.061 | inactive: -0.005 | inactive: 0.064 | inactive: -0.155 | inactive: -0.221 |
| MCRIP1 (UniProt I3L4Q0) | inactive: 0.008 | inactive: -0.082 | inactive: 0.005 | inactive: 0.01 | inactive: 0.038 | inactive: 0.021 | inactive: 0.027 | inactive: 0.046 | inactive: -0.091 | inactive: -0.046 |
| MED31 (UniProt Q9Y3C7) | inactive: 0.062 | inactive: -0.07 | inactive: 0.015 | inactive: 0.064 | inactive: -0.062 | inactive: 0.04 |  | inactive: -0.061 | inactive: -0.006 | inactive: 0.041 |
| MCM10 (UniProt Q7L590) | inactive: -0.066 | inactive: -0.104 | inactive: -0.106 | inactive: 0.075 | inactive: -0.009 | inactive: -0.018 |  | inactive: -0.009 | inactive: -0.063 | inactive: -0.051 |
| MFHAS1 (UniProt Q9Y4C4) | inactive: -0.138 | inactive: 0.16 | inactive: -0.114 |  | inactive: 0 |  |  | inactive: 0.047 | inactive: -0.391 |  |
| MED15 (UniProt Q96RN5) | inactive: 0.016 | inactive: -0.009 | inactive: 0.055 | inactive: -0.002 | inactive: 0.022 | inactive: -0.005 | inactive: -0.003 | inactive: -0.012 | inactive: -0.067 | inactive: -0.012 |
| METTL2B (UniProt Q6P1Q9) | inactive: 0.042 | inactive: 0.037 | inactive: 0.103 | inactive: -0.054 | inactive: 0.07 | inactive: -0.036 |  | inactive: 0 | inactive: -0.046 | inactive: -0.054 |
| MFSD8 (UniProt Q8NHS3) | inactive: -0.003 | inactive: -0.209 | inactive: -0.031 | inactive: -0.108 |  | inactive: 0.058 |  | inactive: -0.133 | inactive: -0.02 | inactive: -0.006 |
| MCM3AP (UniProt O60318) | inactive: -0.039 | inactive: -0.169 |  | inactive: -0.028 | inactive: -0.21 | inactive: -0.048 |  |  | inactive: -0.125 | inactive: -0.24 |
| MBOAT2 (UniProt Q6ZWT7) | inactive: -0.067 | inactive: 0.061 | inactive: -0.005 | inactive: -0.175 | inactive: 0.009 | active: 0.319 | inactive: 0.106 | inactive: -0.12 | inactive: -0.049 | inactive: 0.281 |
| METTL25 (UniProt Q8N6Q8) | inactive: 0.058 | inactive: -0.023 |  |  | inactive: -0.002 |  | inactive: 0.057 |  | inactive: 0.057 |  |
| MED30 (UniProt Q96HR3) | inactive: -0.009 | inactive: -0.113 | inactive: -0.069 | inactive: -0.029 | inactive: -0.091 | inactive: 0.033 | inactive: 0.066 | inactive: 0.04 | inactive: 0.025 | inactive: 0.067 |
| MAZ isoform 2 (UniProt P56270) | inactive: -0.068 | inactive: 0.01 | inactive: 0.015 | inactive: -0.031 | inactive: -0.121 | inactive: 0.15 | inactive: -0.082 | inactive: 0.09 | inactive: -0.022 | inactive: -0.008 |
| MBD4 (UniProt O95243) | inactive: 0.207 |  | inactive: 0.027 | inactive: 0.074 | inactive: -0.106 | inactive: 0.04 | inactive: 0.102 | inactive: 0.018 |  | inactive: 0.134 |
| MCPH1 (UniProt Q8NEM0) |  |  | inactive: -0.047 | inactive: 0.084 |  | inactive: -0.086 |  | inactive: -0.029 |  | inactive: -0.15 |
